Test results published in PMC4980451.
No constants are given. Whether binding was seen depends on the method and setting. For part of these data: In cells and extracts the contact can be indirect. Some entries that bind do so weakly or less than the wild type.

Amino acid sequences for entries named in this document (tags omitted).
UniProt P60484: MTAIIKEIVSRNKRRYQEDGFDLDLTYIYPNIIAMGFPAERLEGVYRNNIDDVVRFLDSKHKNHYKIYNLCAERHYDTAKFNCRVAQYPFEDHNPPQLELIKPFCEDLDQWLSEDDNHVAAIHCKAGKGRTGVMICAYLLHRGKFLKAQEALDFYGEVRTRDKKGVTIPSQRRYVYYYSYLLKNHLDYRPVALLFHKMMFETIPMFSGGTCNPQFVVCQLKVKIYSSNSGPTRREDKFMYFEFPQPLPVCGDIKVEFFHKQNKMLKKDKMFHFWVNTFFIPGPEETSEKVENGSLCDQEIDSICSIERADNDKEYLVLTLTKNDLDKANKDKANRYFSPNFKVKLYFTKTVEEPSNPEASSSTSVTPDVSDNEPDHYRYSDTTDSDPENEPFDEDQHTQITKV
UniProt P52732: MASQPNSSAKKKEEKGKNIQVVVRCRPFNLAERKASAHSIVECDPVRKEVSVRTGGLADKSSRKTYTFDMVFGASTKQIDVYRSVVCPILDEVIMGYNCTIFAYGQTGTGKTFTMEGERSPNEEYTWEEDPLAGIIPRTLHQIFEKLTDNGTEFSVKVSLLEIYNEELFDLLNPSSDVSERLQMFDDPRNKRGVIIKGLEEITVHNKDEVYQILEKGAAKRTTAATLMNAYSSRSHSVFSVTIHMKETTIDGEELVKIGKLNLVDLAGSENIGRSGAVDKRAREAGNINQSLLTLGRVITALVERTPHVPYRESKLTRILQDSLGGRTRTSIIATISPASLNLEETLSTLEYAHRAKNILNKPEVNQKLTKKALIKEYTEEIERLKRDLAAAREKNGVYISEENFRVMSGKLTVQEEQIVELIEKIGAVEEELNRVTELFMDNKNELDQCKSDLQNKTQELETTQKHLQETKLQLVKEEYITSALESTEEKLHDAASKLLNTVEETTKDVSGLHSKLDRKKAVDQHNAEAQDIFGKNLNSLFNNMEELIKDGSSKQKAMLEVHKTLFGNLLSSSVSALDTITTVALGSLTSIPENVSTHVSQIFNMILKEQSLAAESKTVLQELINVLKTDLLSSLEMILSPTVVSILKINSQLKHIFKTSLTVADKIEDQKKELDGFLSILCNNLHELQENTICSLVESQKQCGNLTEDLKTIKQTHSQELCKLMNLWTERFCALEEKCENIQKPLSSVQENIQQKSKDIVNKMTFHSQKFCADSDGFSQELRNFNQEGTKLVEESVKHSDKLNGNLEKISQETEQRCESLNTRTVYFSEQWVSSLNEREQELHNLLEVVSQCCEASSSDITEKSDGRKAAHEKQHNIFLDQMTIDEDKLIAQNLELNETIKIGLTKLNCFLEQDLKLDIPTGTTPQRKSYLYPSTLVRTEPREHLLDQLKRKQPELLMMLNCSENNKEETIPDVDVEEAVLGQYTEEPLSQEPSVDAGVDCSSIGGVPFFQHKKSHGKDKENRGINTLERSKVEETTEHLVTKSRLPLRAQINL

Tests used:
[1] = target: PTEN (endogenous, HeLa) (human (endogenous in HeLa)) (UniProt P60484); test: co-IP; endogenous proteins; cell lysates (HeLa; Pten+/+ MEFs; synchronized samples 6-10 h after release from double thymidine block) immunoprecipitated with an anti-PTEN monoclonal antibody, EG5 detected by Western blotting
[2] = target: PTEN (endogenous, HeLa) (human (endogenous in HeLa)) (UniProt P60484); test: condition: only at times other than 6-10 h after release from double thymidine block; co-IP; endogenous proteins; synchronized samples at times other than 6-10 h after release from double thymidine block
[3] = target: His-PTEN (UniProt P60484); test: co-IP; purified FLAG-EG5 (1 ug) incubated with His-PTEN (1 ug) for 30 min at room temperature; immunoprecipitated with a PTEN monoclonal antibody; FLAG-EG5 detected with anti-FLAG antibody; both purified

With “EG5 (endogenous, HeLa) (from UniProt P52732 1-1056)” the binding [1] was “binds” and the binding [2] was “no binding”.

With “FLAG-EG5 (Sf9) (from UniProt P52732 1-1056)” the binding [3] was “binds”.
